# Assay results from PubChem BioAssay (Tox21).
# Sequences of proteins named here, by UniProt entry; tags and fusion partners are left off. A change or cut given only in a name is not applied to a line headed by its entry.
# UniProt P14416, whole entry, looked up: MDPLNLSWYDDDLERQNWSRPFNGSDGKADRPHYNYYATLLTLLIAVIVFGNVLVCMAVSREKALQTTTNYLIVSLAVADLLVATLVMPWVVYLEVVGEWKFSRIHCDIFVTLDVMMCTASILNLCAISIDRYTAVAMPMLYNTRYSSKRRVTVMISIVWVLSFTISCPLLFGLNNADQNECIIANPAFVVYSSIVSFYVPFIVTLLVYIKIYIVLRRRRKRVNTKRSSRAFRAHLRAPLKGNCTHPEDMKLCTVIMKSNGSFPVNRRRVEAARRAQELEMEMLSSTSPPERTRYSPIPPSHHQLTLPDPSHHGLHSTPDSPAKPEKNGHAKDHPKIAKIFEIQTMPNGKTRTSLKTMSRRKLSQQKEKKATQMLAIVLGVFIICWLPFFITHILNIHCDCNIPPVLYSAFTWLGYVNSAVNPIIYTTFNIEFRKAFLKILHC
# UniProt P28223, whole entry, looked up: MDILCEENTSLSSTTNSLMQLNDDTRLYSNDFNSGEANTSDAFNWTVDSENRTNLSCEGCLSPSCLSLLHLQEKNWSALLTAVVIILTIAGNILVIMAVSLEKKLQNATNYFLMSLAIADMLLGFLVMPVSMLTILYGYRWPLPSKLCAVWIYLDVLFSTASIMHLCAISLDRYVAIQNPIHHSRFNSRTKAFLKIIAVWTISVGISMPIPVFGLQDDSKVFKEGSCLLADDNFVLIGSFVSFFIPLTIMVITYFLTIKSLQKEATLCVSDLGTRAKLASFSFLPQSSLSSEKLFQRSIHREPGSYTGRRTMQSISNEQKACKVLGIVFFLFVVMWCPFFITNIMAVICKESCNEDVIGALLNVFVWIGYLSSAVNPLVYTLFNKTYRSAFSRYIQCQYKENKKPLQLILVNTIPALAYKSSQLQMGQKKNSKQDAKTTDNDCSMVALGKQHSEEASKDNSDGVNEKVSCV
# UniProt P11229: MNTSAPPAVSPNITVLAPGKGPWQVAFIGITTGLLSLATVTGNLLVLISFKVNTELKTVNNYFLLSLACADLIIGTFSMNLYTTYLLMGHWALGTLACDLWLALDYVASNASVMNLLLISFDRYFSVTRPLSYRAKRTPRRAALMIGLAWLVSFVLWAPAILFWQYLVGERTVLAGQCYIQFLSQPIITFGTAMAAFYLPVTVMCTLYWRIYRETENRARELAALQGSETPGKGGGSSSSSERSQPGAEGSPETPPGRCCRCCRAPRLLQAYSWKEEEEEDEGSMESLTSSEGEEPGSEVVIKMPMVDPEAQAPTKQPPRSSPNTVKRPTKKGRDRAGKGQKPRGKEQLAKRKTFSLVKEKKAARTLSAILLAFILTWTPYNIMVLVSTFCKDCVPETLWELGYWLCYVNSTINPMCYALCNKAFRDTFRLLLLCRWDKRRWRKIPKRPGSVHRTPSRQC
# Several values for one entry are separate records, joined by “and”; a condition that tells them apart may be missing. Equal values may be shown once. This list was built around the results that the source calls inconclusive (neither active nor inactive); the mix of calls is not that of the screen. For some assays here: Potencies of inconclusive entries are doubtful fits and often do not repeat. Activity calls are given as the source filed them. Unless noted, calls follow the shape of the full dose curve.
# Legend:
# [1] = p53 small molecule agonists, cell-based qHTS assay with human liver microsomes (AID 1963577); settings: HCT-116 p53RE-bla with human liver microsomes, ratio, 16 h; activation: at 66 µM (top of the series) unless noted; also: potency is read from the fitted curve at half-maximal effect;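 as to activation: p53 response element beta-lactamase reporter cells with liver microsomes plus NADPH; % is scaled to controls: 0 for no effect and ±100 for the full control effect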
# How it was run: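 Compounds act here after metabolic activation: human liver microsomes and NADPH, both at 0.5 mg/mL final, were co-added to p53RE-bla cells. Incubation ran 16 h at 37 C, followed by LiveBLAzer detection.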
# [2] = p53 small molecule agonists, cell-based qHTS assay: qHTS cell viability counter screen (AID 1963581); also: nearly all actives have a fitted effect of over 45% in size; also: potency is read from the fitted curve at half-maximal effect
# How it was run: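 In the same plates used for the p53 bla reporter, HCT-116 cells given compounds for 16 h at 37 C received CellTiter-Glo; luminescence was recorded 30 min later at room temperature.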
# [3] = cAMP Responsive Elements (CRE) small molecule agonists, cell-based qHTS assay (AID 1963590); settings: CRE-bla HEK293T, beta-lactamase FRET ratio, 3 h; activation: at 92.4 µM (top of the series) unless noted; also: potency is read from the fitted curve at half-maximal effect; as to activation: % is scaled to controls: 0 for no effect and ±100 for the full control effect
# How it was run: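 Cell line: CRE-bla HEK 293T; medium DMEM/10% dialyzed FBS/0.1 mM NEAA/1 mM pyruvate/25 mM HEPES; 3 h compound exposure; beta-lactamase FRET readout after 2 h substrate loading at RT.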
# [4] = molecular target: Beta-2 adrenergic receptor (Homo sapiens) (UniProt P07550); experiment: Adrenergic beta2 receptor (ADRB2) small molecule agonists, cell-based qHTS assay (AID 1963593); settings: CHO-ADRB2 cells, cAMP HTRF, 30 min; also: potency is read from the fitted curve at half-maximal effect
# How it was run: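 CHO cells stably over-expressing ADRB2 were plated overnight at 37C, then dosed with compounds plus a stimulation mix containing 100uM IBMX and 25uM Ro-20-1724 for 0.5hr at room temperature. cAMP was measured by HTRF competition, 1hr.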
# [5] = cAMP Responsive Elements (CRE) small molecule antagonists, cell-based qHTS assay (AID 1963591; active = well fitted inhibition curve with a large enough effect in the signal ratio in the repeat runs, not every such curve was filed as active; inconclusive = weak or mixed curves, or effect the other way; the % refers to the signal ratio; also: potency is read from the fitted curve at half-maximal effect); settings: CRE-bla HEK293T, beta-lactamase FRET ratio; activity change, negative = inhibition: at 92.4 µM (top of the series) unless noted
# How it was run: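 Inhibition of NKH477-driven (0.25 uM final) CRE-beta-lactamase signal in HEK293T cells, 3 h compound exposure at 37 °C, detected by FRET substrate fluorescence.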
# [6] = p53 small molecule agonists, cell-based qHTS assay (AID 1963582; active = well fitted activation curve with a large enough effect in the signal ratio in the repeat runs, not every such curve was filed as active; inconclusive = weak or mixed curves; the % refers to the signal ratio; also: potency is read from the fitted curve at half-maximal effect; as to activation: % is scaled to controls: 0 for no effect and ±100 for the full control effect); settings: HCT-116 p53RE-bla reporter, beta-lactamase FRET ratio, 16 h; activation: at 66 µM (top of the series) unless noted
# How it was run: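 Compounds are pin-transferred in DMSO onto p53RE-bla cells and incubated 16 h at 37 C. The B/G FRET beta-lactamase substrate is then applied for 2 h at RT and fluorescence recorded.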
# [7] = molecular target: D(2) dopamine receptor (Homo sapiens) (UniProt P14416); experiment: Dopamine D2 receptor (DRD2) small molecule agonists, cell-based qHTS assay (AID 1963594); settings: HEK293-DRD2 cAMP HTRF, agonist mode, 30 min; activation: at 92.4 µM (top of the series) unless noted; also: % is scaled to controls: 0 for no effect and ±100 for the full control effect; nearly all actives have a fitted effect of over 35% in size
# How it was run: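 HEK293 cells stably expressing DRD2 were cultured 24 h at 37 C, then given Ro20-1724 (0.1 mM final) and compounds for 10 min at room temperature. NKH477 (200nM) was then added for 30 min. cAMP was read by HTRF.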
# [8] = molecular target: D(2) dopamine receptor (Homo sapiens) (UniProt P14416); experiment: Dopamine D2 receptor (DRD2) small molecule antagonists, cell-based qHTS assay (AID 1963595; active = well fitted inhibition curve with a large enough effect in the signal ratio in the repeat runs, with a control signal flat; inconclusive = weak or mixed curves, or effect the other way; the % refers to the signal ratio; also: % is scaled to controls: 0 for no effect and ±100 for the full control effect); settings: HEK293-DRD2 cAMP HTRF antagonist mode; activity change, negative = inhibition: at 92.4 µM (top of the series) unless noted
# How it was run: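 Readout: HTRF cAMP, cAMP-d2 competing with cellular cAMP for anti-cAMP cryptate, read after 1 h. Cells: DRD2-HEK293. Conditions: 0.1 mM Ro20-1724, 12 nM quinpirole, 200 nM NKH477, 30 min RT.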
# [9] = molecular target: 5-hydroxytryptamine receptor 2A (Homo sapiens) (UniProt P28223); experiment: 5-hydroxytryptamine receptor 2A (HTR2A) small molecule antagonists, cell-based qHTS assay (AID 1963586); also: potency is read from the fitted curve at half-maximal effect; nearly all actives have a fitted effect of over 45% in size
# How it was run: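 Antagonist-mode intracellular calcium assay: DOI (4 nM) added after 5 min compound pre-incubation at room temperature to dye-loaded HTR2A-CHO cells. Fluorescence followed for 3 min, sampled every second.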
# [10] = molecular target: 5-hydroxytryptamine receptor 2A (Homo sapiens) (UniProt P28223); experiment: 5-hydroxytryptamine receptor 2A (HTR2A) small molecule agonists, cell-based qHTS assay (AID 1963587); also: % is scaled to controls: 0 for no effect and ±100 for the full control effect; nearly all actives have a fitted effect of over 30% in size
# How it was run: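 HTR2A-CHO cells, plated 18 h at 37 C/5% CO2, dye-loaded 1 h at 37 C; compounds in DMSO added by pin tool (agonist mode). Intracellular calcium flux read as kinetic fluorescence on FDSS over 2 min at 1 s intervals.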
# [11] = molecular target: Muscarinic acetylcholine receptor M1 (Homo sapiens) (UniProt P11229); experiment: Cholinergic receptor muscarinic 1 (CHRM1) small molecule antagonists, cell-based qHTS assay (AID 1963588); also: nearly all actives have a fitted effect of over 40% in size; also: potency is read from the fitted curve at half-maximal effect
# How it was run: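 CHRM1-CHO calcium-flux assay, antagonist mode. Cells were seeded 18 h, dye-loaded 1 h at 37 C and given compound for 5 min at RT, then acetylcholine was added at 50nM. FDSS fluorescence was read 3 min; 15 concentrations, three runs.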
# [12] = activation: at 92.4 µM (top of the series) unless noted
compound,measurement,setting,value
CCN(Cc1ccccc1)c1ccccc1,activation,[1],inconclusive: 21.2%
same,Potency,[2],"inconclusive: 35.9 µM [cytotoxic, partial curve, poor fit]"
same,Potency,[3],inactive
same,Potency,[4]; [12],"inconclusive: 15.2 µM [inhibitor, single point]"
CC#C[C@]1(O)CC[C@H]2[C@@H]3CCC4=CC(=O)CCC4=C3[C@@H](c3ccc(N(C)C)cc3)C[C@@]21C,Potency,[1],"inconclusive: 15.8 µM [rising, partial curve, poor fit]"
same,Potency,[2],inactive
same,Potency,[5],"inconclusive: 27.3 µM [fluorescent, partial curve] and inconclusive: 21.1 µM [fluorescent, partial curve]"
same,Potency,[4]; [12],"inconclusive: 27.3 µM [inhibitor, partial curve, poor fit] and inconclusive: 668 nM [inhibitor, single point]"
CCOC(=O)C(=O)c1csc(NC=O)n1,Potency,[1],inactive
same,Potency,[2],"inconclusive: 0.793 µM [cytotoxic, single point]"
same,Potency,[6],inactive
same,Potency,[3],inactive
same,Potency,[4]; [12],inactive
O=C1CCCc2c1cc1ccc3cccc4ccc2c1c34,Potency,[1],"inconclusive: 10.4 µM [activator, partial curve]"
same,Potency,[2],"inconclusive: 10.4 µM [rising, full curve]"
same,activation,[6],inconclusive: 1.13%
same,Potency,[3],"inconclusive: 19.6 µM [fluorescent, full curve, poor fit]"
same,activation,[4]; [12],inconclusive: 20.9%
CC(C(=O)O)c1ccc2c(c1)Cc1cccnc1O2 (stereo unspecified),Potency,[1],inactive
same,Potency,[2],"inconclusive: 0.126 µM [rising, partial curve, poor fit]"
same,Potency,[6],"inconclusive: 7.93 µM [rising, single point]"
same,Potency,[3],"inconclusive: 18.8 µM [fluorescent, partial curve]"
same,Potency,[5],inconclusive: 26.6 µM [fluorescent]
same,activation,[4]; [12],inconclusive: 40.7% [at 42.5 µM]
same,Potency,[7],inactive
same,"activity change, negative = inhibition",[8],inconclusive: -1.06% [at 42.5 µM]
CC(S)C(C)S (stereo unspecified),Potency,[1],inconclusive: 54.4 µM [activator]
same,Potency,[2],inactive
same,Potency,[4]; [12],inactive
CC(C)Cc1nccs1,Potency,[1],inactive
same,Potency,[2],"inconclusive: 0.415 µM [cytotoxic, single point]"
same,Potency,[6],"inconclusive: 52.3 µM [activator, partial curve, poor fit]"
same,Potency,[3],"inconclusive: 8.79 µM [rising, full curve, poor fit]"
same,Potency,[4]; [12],"inconclusive: 6.23 µM [inhibitor, single point]"
same,Potency,[8],inactive
NS(=O)(=O)c1ccc(C(=O)O)cc1,Potency,[1],"inconclusive: 12.6 µM [fluorescent, partial curve]"
same,Potency,[2],"inconclusive: 4.46 µM [cytotoxic, single point]"
same,Potency,[6],inactive
same,Potency,[5],inactive
same,Potency,[4]; [12],inactive
Cc1c(C(N)=O)cc([N+](=O)[O-])cc1[N+](=O)[O-],Potency,[1],"inconclusive: 51.3 µM [fluorescent, partial curve, poor fit]"
same,Potency,[2],"inconclusive: 0.408 µM [cytotoxic, single point]"
same,Potency,[9],"inconclusive: 0.516 µM [inhibitor, full curve, poor fit]"
same,Potency,[3],inactive
same,activation,[4]; [12],inconclusive: 5.02% [at 42.5 µM]
same,activation,[4]; at 92.4 µM (top of the series),inactive: 5.71%
CC1=CC(=O)/C(=C(/C)O)C(=O)O1,Potency,[1],"inconclusive: 32.4 µM [fluorescent, partial curve]"
same,Potency,[2],"inconclusive: 20.4 µM [rising, single point]"
same,Potency,[9],"inconclusive: 0.0188 µM [inhibitor, full curve, poor fit]"
same,Potency,[10],inactive
same,Potency,[11],inactive
same,activation,[4]; [12],inconclusive: -3.53%
same,"activity change, negative = inhibition",[8],inconclusive: 1.86%
CC1=CC(C)C(C=O)C(C)C1 (stereo unspecified),Potency,[1],"inconclusive: 45.8 µM [activator, single point]"
same,Potency,[2],"inconclusive: 12.9 µM [rising, partial curve, poor fit]"
O=S(=O)(Oc1ccc(Cl)cc1)c1ccccc1,activation,[1],inconclusive: 21.3%
same,Potency,[2],"inconclusive: 0.0091 µM [rising, full curve, poor fit]"
same,Potency,[6],inactive
same,Potency,[11],active: 11.9 µM
same,Potency,[4]; [12],"inconclusive: 0.433 µM [inhibitor, partial curve]"
O=c1[nH]c(=O)n([C@H]2C[C@H](O)[C@@H](CO)O2)cc1F,Potency,[1],"inconclusive: 19.9 µM [falling, partial curve, poor fit]"
same,Potency,[2],"inconclusive: 3.97 µM [cytotoxic, partial curve, poor fit]"
same,Potency,[6],active: 0.446 µM
same,Potency,[3],"inconclusive: 23.7 µM [rising, partial curve]"
same,Potency,[4]; [12],"inconclusive: 1.19 µM [inhibitor, single point]"
same,activation,[7],inconclusive: -20.5% [at 42.5 µM]
CC(O)COc1ccccc1 (stereo unspecified),Potency,[1],"inconclusive: 14.1 µM [fluorescent, partial curve]"
same,Potency,[2],"inconclusive: 45.8 µM [rising, single point]"
same,Potency,[11],"inconclusive: 0.84 µM [inhibitor, full curve, poor fit]"
same,activation,[4]; at 42.5 µM (top of the series),inconclusive: 7.42%
same,activation,[4]; at 92.4 µM (top of the series),inconclusive: -34.8% and inactive: 11.7%

# 2 records picked at random from those above, as already listed:
compound,measurement,setting,value
CCOC(=O)C(=O)c1csc(NC=O)n1,Potency,[1],inactive
CC(S)C(C)S (stereo unspecified),Potency,[1],inconclusive: 54.4 µM [activator]
